No constants are given. Whether binding was seen depends on the method and setting. Binding seen in cells or lysates may run through a third protein. These calls come from enrichment with a bait or labelling near it, and not all partners need be listed. Tags and fused reporters may be left off the sequences shown.
Target: T1, Epstein-Barr virus (EBV) BGLF2 protein, FLAG-tagged (Epstein-Barr virus) (UniProt P0CK53)
T1 sequence: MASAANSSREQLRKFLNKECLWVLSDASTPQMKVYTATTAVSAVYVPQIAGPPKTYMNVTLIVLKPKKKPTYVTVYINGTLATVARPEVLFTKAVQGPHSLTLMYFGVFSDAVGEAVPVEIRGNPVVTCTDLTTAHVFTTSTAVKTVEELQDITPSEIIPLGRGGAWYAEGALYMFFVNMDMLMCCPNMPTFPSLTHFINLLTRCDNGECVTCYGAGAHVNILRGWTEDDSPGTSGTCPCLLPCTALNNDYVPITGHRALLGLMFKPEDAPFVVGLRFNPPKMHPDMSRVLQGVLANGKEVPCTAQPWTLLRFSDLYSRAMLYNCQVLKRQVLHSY
Test: affinity purification with mass spectrometry; BGLF2-FLAG expressed in 293T cells, recovered on M2 anti-FLAG resin from lysate in modified RIPA buffer (250 mM NaCl), 4 h at 4°C; co-purifying proteins by LC-MS/MS; two experiments, compared with empty FLAG plasmid and the CRAPome

| Binder | binding |
| --- | --- |
| NFATC4 (protein, UniProt Q14934 1-902) MGAASCEDEELEFKLVFGEEKEAPPLGAGGLGEELDSEDAPPCCRLALGEPPPYGAAPIGIPRPPPPRPGMHSPPPRPAPSPGTWESQPARSVRLGGPGGGAGGAGGGRVLECPSIRITSISPTPEPPAALEDNPDAWGDGSPRDYPPPEGFGGYREAGGQGGGAFFSPSPGSSSLSSWSFFSDASDEAALYAACDEVESELNEAASRFGLGSPLPSPRASPRPWTPEDPWSLYGPSPGGRGPEDSWLLLSAPGPTPASPRPASPCGKRRYSSSGTPSSASPALSRRGSLGEEGSEPPPPPPLPLARDPGSPGPFDYVGAPPAESIPQKTRRTSSEQAVALPRSEEPASCNGKLPLGAEESVAPPGGSRKEVAGMDYLAVPSPLAWSKARIGGHSPIFRTSALPPLDWPLPSQYEQLELRIEVQPRAHHRAHYETEGSRGAVKAAPGGHPVVKLLGYSEKPLTLQMFIGTADERNLRPHAFYQVHRITGKMVATASYEAVVSGTKVLEMTLLPENNMAANIDCAGILKLRNSDIELRKGETDIGRKNTRVRLVFRVHVPQGGGKVVSVQAASVPIECSQRSAQELPQVEAYSPSACSVRGGEELVLTGSNFLPDSKVVFIERGPDGKLQWEEEATVNRLQSNEVTLTLTVPEYSNKRVSRPVQVYFYVSNGRRKRSPTQSFRFLPVICKEEPLPDSSLRGFPSASATPFGTDMDFSPPRPPYPSYPHEDPACETPYLSEGFGYGMPPLYPQTGPPPSYRPGLRMFPETRGTTGCAQPPAVSFLPRPFPSDPYGGRGSSFSLGLPFSPPAPFRPPPLPASPPLEGPFPSQSDVHPLPAEGYNKVGPGYGPGEGAPEQEKSRGGYSSGFRDSVPIQGITLEEVSEIIGRDLSGFPAPPGEEPPA | binds |
| ZNF598 (protein, UniProt Q86UK7 1-904) MAAAGGAEGRRAALEAAAAAAPERGGGSCVLCCGDLEATALGRCDHPVCYRCSTKMRVLCEQRYCAVCREELRQVVFGKKLPAFATIPIHQLQHEKKYDIYFADGKVYALYRQLLQHECPRCPELPPFSLFGDLEQHMRRQHELFCCRLCLQHLQIFTYERKWYSRKDLARHRMQGDPDDTSHRGHPLCKFCDERYLDNDELLKHLRRDHYFCHFCDSDGAQDYYSDYAYLREHFREKHFLCEEGRCSTEQFTHAFRTEIDLKAHRTACHSRSRAEARQNRHIDLQFSYAPRHSRRNEGVVGGEDYEEVDRYSRQGRVARAGTRGAQQSRRGSWRYKREEEDREVAAAVRASVAAQQQEEARRSEDQEEGGRPKKEEAAARGPEDPRGPRRSPRTQGEGPGPKETSTNGPVSQEAFSVTGPAAPGCVGVPGALPPPSPKLKDEDFPSLSASTSSSCSTAATPGPVGLALPYAIPARGRSAFQEEDFPALVSSVPKPGTAPTSLVSAWNSSSSSKKVAQPPLSAQATGSGQPTRKAGKGSRGGRKGGPPFTQEEEEDGGPALQELLSTRPTGSVSSTLGLASIQPSKVGKKKKVGSEKPGTTLPQPPPATCPPGALQAPEAPASRAEGPVAVVVNGHTEGPAPARSAPKEPPGLPRPLGSFPCPTPQEDFPALGGPCPPRMPPPPGFSAVVLLKGTPPPPPPGLVPPISKPPPGFSGLLPSPHPACVPSPATTTTTKAPRLLPAPRAYLVPENFRERNLQLIQSIRDFLQSDEARFSEFKSHSGEFRQGLISAAQYYKSCRDLLGENFQKVFNELLVLLPDTAKQQELLSAHTDFCNREKPLSTKSKKNKKSAWQATTQQAGLDCRVCPTCQQVLAHGDASSHQALHAARDDDFPSLQAIARIIT | binds |
| SCYL1 (protein, UniProt Q96KG9 1-808) MWFFARDPVRDFPFELIPEPPEGGLPGPWALHRGRKKATGSPVSIFVYDVKPGAEEQTQVAKAAFKRFKTLRHPNILAYIDGLETEKCLHVVTEAVTPLGIYLKARVEAGGLKELEISWGLHQIVKALSFLVNDCSLIHNNVCMAAVFVDRAGEWKLGGLDYMYSAQGNGGGPPRKGIPELEQYDPPELADSSGRVVREKWSADMWRLGCLIWEVFNGPLPRAAALRNPGKIPKTLVPHYCELVGANPKVRPNPARFLQNCRAPGGFMSNRFVETNLFLEEIQIKEPAEKQKFFQELSKSLDAFPEDFCRHKVLPQLLTAFEFGNAGAVVLTPLFKVGKFLSAEEYQQKIIPVVVKMFSSTDRAMRIRLLQQMEQFIQYLDEPTVNTQIFPHVVHGFLDTNPAIREQTVKSMLLLAPKLNEANLNVELMKHFARLQAKDEQGPIRCNTTVCLGKIGSYLSASTRHRVLTSAFSRATRDPFAPSRVAGVLGFAATHNLYSMNDCAQKILPVLCGLTVDPEKSVRDQAFKAIRSFLSKLESVSEDPTQLEEVEKDVHAASSPGMGGAAASWAGWAVTGVSSLTSKLIRSHPTTAPTETNIPQRPTPEGVPAPAPTPVPATPTTSGHWETQEEDKDTAEDSSTADRWDDEDWGSLEQEAESVLAQQDDWSTGGQVSRASQVSNSDHKSSKSPESDWSSWEAEGSWEQGWQEPSSQEPPPDGTRLASEYNWGGPESSDKGDPFATLSARPSTQPRPDSWGEDNWEGLETDSRQVKAELARKKREERRREMEAKRAERKVAKGPMKLGARKLD | binds |
